In patent US20100168176A1, “NOVEL COMPOUNDS, PHARMACEUTICAL COMPOSITIONS CONTAINING SAME, AND METHODS OF USE FOR SAME” (FASGEN LLC, priority 2006, published 2010):
A number of entries come with more than one value. This list holds those alone. An entry can have further records. The values listed for one entry differ, and nothing given here explains why; dose, time, organism, isomer or construct need not be as stated for each record.

By UniProt entry, the sequences of proteins in these tests, tags left out.
UniProt P49327, whole entry: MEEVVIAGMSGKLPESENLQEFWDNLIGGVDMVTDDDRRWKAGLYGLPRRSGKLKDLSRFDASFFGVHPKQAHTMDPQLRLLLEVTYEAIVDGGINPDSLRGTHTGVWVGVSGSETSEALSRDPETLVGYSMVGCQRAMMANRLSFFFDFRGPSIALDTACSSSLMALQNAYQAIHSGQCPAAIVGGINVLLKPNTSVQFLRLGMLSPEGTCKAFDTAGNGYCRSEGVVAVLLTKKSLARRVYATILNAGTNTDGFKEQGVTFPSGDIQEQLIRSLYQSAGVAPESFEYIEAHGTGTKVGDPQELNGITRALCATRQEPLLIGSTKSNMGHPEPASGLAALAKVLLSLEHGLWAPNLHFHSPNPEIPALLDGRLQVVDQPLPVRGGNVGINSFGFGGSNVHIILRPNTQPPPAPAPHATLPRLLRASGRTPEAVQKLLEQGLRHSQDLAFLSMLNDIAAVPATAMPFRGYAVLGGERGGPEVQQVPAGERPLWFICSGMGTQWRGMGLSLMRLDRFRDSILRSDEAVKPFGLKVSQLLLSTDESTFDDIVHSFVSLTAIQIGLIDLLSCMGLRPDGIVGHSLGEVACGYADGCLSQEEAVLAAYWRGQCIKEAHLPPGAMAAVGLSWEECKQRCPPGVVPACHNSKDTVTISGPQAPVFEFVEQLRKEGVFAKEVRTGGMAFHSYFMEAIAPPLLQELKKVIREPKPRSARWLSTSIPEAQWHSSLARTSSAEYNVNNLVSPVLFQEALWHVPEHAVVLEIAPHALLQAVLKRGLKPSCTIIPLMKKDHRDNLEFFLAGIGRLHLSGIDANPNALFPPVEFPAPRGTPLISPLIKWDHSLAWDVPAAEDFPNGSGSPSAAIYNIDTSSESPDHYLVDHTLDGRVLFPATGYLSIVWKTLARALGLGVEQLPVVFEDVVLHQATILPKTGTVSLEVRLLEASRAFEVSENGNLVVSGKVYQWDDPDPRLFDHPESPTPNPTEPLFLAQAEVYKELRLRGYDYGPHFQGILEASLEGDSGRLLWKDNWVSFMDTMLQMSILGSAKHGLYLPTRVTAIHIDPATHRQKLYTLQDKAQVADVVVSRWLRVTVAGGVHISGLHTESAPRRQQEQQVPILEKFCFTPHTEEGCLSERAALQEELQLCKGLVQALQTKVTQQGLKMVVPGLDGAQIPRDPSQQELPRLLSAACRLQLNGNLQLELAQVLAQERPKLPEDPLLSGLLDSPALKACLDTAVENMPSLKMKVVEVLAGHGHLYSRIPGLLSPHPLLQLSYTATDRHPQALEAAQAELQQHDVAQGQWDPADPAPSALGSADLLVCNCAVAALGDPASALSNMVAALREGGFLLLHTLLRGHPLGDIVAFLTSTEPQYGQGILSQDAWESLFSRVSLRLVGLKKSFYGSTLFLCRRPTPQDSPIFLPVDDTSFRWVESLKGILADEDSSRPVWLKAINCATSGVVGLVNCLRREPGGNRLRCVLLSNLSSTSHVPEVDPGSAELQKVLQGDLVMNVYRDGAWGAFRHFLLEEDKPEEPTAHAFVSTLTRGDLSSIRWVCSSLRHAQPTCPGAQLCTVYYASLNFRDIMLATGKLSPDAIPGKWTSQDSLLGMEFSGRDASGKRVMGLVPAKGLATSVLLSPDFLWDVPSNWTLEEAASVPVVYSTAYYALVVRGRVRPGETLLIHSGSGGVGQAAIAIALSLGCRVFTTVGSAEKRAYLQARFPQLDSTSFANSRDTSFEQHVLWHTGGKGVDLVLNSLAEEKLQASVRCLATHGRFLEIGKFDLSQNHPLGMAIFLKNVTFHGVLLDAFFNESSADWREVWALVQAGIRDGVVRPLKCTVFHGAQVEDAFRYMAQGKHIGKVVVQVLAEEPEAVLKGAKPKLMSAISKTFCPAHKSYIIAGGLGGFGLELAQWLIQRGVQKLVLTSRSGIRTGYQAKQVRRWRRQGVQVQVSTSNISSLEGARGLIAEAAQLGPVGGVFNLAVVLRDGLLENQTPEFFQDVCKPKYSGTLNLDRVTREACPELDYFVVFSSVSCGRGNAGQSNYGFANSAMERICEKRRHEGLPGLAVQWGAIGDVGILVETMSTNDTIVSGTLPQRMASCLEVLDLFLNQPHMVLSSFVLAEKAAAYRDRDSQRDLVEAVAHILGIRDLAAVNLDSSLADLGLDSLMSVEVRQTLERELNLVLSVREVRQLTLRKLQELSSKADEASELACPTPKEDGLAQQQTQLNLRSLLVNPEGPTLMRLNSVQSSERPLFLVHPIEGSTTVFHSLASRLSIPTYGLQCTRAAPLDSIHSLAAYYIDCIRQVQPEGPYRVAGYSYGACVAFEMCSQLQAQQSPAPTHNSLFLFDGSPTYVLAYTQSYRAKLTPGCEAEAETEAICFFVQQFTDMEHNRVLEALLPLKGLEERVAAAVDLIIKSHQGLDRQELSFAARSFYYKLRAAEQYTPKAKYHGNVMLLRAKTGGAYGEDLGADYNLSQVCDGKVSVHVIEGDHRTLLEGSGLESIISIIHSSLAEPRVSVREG

Biological target: purified human FAS (Homo sapiens, UniProt P49327)
Assay: FAS enzymatic activity (malonyl-CoA dependent NADPH oxidation, OD340)
Conditions: purified human FAS from ZR-75-1 cells
Description: Purification of FAS from ZR-75-1 Human Breast Cancer Cells.
Human FAS was purified from cultured ZR-75-1 human breast cancer cells obtained from the American Type Culture Collection. The procedure, adapted from Linn et al., 1981, and Kuhajda et al., 1994, utilizes hypotonic lysis, successive polyethyleneglycol (PEG) precipitations, and anion exchange chromatography. ZR-75-1 cells are cultured at 37° C. with 5% CO2 in RPMI culture medium with 10% fetal bovine serum, penicillin and streptomycin.
Ten T150 flasks of confluent cells are lysed with 1.5 ml lysis buffer (20 mM Tris-HCl, pH 7.5, 1 mM EDTA, 0.1 mM phenylmethanesulfonyl fluoride (PMSF), 0.1% Igepal CA-630) and dounce homogenized on ice for 20 strokes. […] FAS protein concentration is determined using the Coomassie Plus Protein Assay Reagent (Pierce) according to manufacturer's specifications using BSA as a standard. […]
FAS activity is measured by monitoring the malonyl-CoA dependent oxidation of NADPH spectrophotometrically at OD340 in 96-well plates (Dils et al and Arslanian et al, 1975). […]
The assay is performed on a Molecular Devices SpectraMax Plus Spectrophotometer. […] Using the kinetic protocol, the wells are blanked on duplicate wells containing 100 μl of 100 mM K2HPO4, pH 6.5 and the plate is read at OD340 at 10 sec intervals for 5 minutes to measure any malonyl-CoA independent oxidation of NADPH. […]

CCCCCCCCC1(C)SC(=O)C=C1OCC(=O)NNc1ccc(Cl)cc1 (stereo not shown)
FAS (IC50): Neg and 237 ± 43 ug/ml
